From PubChem BioAssay (NCATS)
The inconclusive results got no clear call from the source; some entries with a clear call stand among them for comparison. Potencies of inconclusive entries are doubtful fits and often do not repeat. The source made the active and inactive calls. Calls come from the whole dose curve; as a rule, active = well fitted cell-killing curve with a large enough effect; inconclusive = small, poorly fitted or top-dose-only effect, or effect the other way; inactive = no such curve, though single readings can be large or run the other way.

Test: Quantitative High-Throughput drug screen in 47 multiple myeloma cell lines against the NCATS MIPE library collection: L363_DSMZ cell viability assay (AID 1918984); note: nearly all actives have a fitted effect of over 40% in size
Details: L363 myeloma viability, CellTiter-Glo ATP luminescence, 48 h; series mostly up to 45.8 µM
Excerpt: PI: Beverly A. Mock Ph.D.
Laboratory of Cancer Biology and Genetics,
Center for Cancer Research, National Cancer Institute,
National Institute of Health, Bethesda, Maryland
Drug resistance and disease progression are common in multiple myeloma (MM) patients, underscoring the need for new therapeutic combinations. […] We hypothesized that effective combinations would reduce MYC expression and enhance p16 activity. […] These preclinical data identify potentially useful drug combinations for evaluation in drug-resistant MM and reveal potential mechanisms of combined drug sensitivity.
Described herein is the primary MIPE qHTS used to cherrypick compounds. Validated compounds were then further tested for potential synergistic activiy.
[1] Peat TJ, Gaikwad SM, Dubois W, Gyabaah-Kessie N, Zhang S, Gorjifard S, Phyo Z, Andres M, Hughitt VK, Simpson RM, Miller MA, Girvin AT, Taylor A, Williams D, D'Antonio N, Zhang Y, Rajagopalan A, Flietner E, Wilson K, Zhang X, Shinn P, Klumpp-Thomas C, McKnight C, Itkin Z, Chen L, Kazandijian D, Zhang J, Michalowski AM, Simmons JK, Keats J, Thomas CJ, Mock BA. Drug combinations identified by high-throughput screening promote cell cycle transition and upregulate Smad pathways in myeloma. Cancer Lett. 2023 Aug 1;568:216284. doi: 10.1016/j.canlet.2023.216284. Epub 2023 Jun 24. PMID: 37356470; PMCID: PMC10408729.
SEQUENCE No. (e.g., 1, 2, 3, etc.); […] (e.g., Cells, Incubation, Reagent, etc.); VALUE and DESCRIPTION.
1; Cells; 5 uL; white, solid bottom 1536-well Greiner assay plate.
2; Compounds; 23 nL; Kalypsis pin tool (Wako USA) equipped with a 1536-well pin head to transfer to the assay plates.
3; Incubation; 48 hours; 37C incubation.
4; Reagent;5uL; CellTiter Glo (Promega).
5; Detector; 425V; Luminescence; Viewlux PerkinElmer.
NOTES (numbers refer to Sequence numbers above)
1. The cell-based screening methods employed in this study were like those previously published. Briefly, the corresponding myeloma cell lines were screened in 1,536-well plates with 500 cells, 5-uL per well for inhibition of cell viability (assessed by measuring ATP levels with CellTiterGlo).
2. NCATS MIPE 4.0 library of approved and investigational drugs were added using the Kalypsis pin tool. Wells treated with DMSO only for 100% viability and media only for 0% viability were used as controls.
3. The assay plates were covered and incubated for 48 hours in a 37C, 5% CO2 incubator with controlled humidity.
4. After 48 hours, CellTilter-GloTM luminescent substrate mix (Promega) reagent was added to the assay plate and plates we incubated for 5 min at room temperature.
5. Signal was measured as median relative luminescence units on a ViewLux (PerkinElmer) multiplate reader.
[1] Heske CM, Davis MI, Baumgart JT, Wilson K, Gormally MV, Chen L, Zhang X, Ceribelli M, Duveau DY, Guha R, Ferrer M, Arnaldez FI, Ji J, Tran HL, Zhang Y, Mendoza A, Helman LJ, Thomas CJ. Matrix Screen Identifies Synergistic Combination of PARP Inhibitors and Nicotinamide Phosphoribosyltransferase (NAMPT) Inhibitors in Ewing Sarcoma. Clin Cancer Res. 2017 Dec 1;23(23):7301-7311. doi: 10.1158/1078-0432.CCR-17-1121. Epub 2017 Sep 12. PMID: 28899971; PMCID: PMC6636827.
Potency is the fitted concentration of half-maximal effect.

| SMILES | Potency |
| --- | --- |
| O=S(=O)(F)Cc1ccccc1 | inconclusive: 7430 nM [cytotoxic, full curve, poor fit] |
| CC(=Cc1csc(C)n1)[C@@H]1C[C@H]2O[C@@H]2CCC[C@H](C)[C@@H](O)[C@@H](C)C(=O)C(C)(C)[C@@H](O)CC(=O)O1 | inconclusive: 1.3 nM [cytotoxic, full curve] |
| CCN1CCN(C(=O)Cc2ccc(Nc3ncc(F)c(Nc4ccc(C(=O)Nc5ccccc5Cl)cc4)n3)cc2)CC1 | active: 1870 nM |
| C[C@@H]1[C@H](O)[C@@H](C)C=CC=CCCC=CC=CC=CC=C[C@H](O[C@H]2O[C@@H](C)[C@H](O)[C@@H](N)[C@@H]2O)CC2O[C@](O)(C[C@@H](O)[C@H](O)CC[C@@H](O)C[C@@H](O)C[C@@H](O)CC(=O)O[C@H]1C)C[C@H](O)[C@H]2C(=O)O | inconclusive: 1.2 nM [cytotoxic, full curve, poor fit] |
| CN(C)CCN(C)CCc1ccc(Cl)c(Cl)c1 | inconclusive: 26400 nM [cytotoxic, single point] |
| CC(C)[C@]12O[C@@H]1[C@@H]1O[C@]13[C@]1(O[C@H]1C[C@@H]1C4=C(CC[C@@]13C)C(=O)OC4)[C@H]2O | inactive |
| CN1C(=O)CCS(=O)(=O)C1c1ccc(Cl)cc1 (stereo not given) | inactive |
| C[C@H]([C@H](O)CCC(C)(C)O)[C@H]1CC[C@@]2(O)C3=CC(=O)[C@@H]4C[C@@H](O)[C@@H](O)C[C@]4(C)[C@@H]3CC[C@]12C | inactive |
| COc1ccc(N(C(=O)Oc2c(C)cccc2C)c2ccnc(Nc3ccc(N4CCN(C)CC4)cc3)n2)c(OC)c1 | inconclusive: 935 nM [cytotoxic, full curve] |
| C=C[C@@H]1CN2CCC1C[C@H]2[C@H](O)c1ccnc2ccccc12 (stereo not given in full) | inconclusive: 13200 nM [cytotoxic, partial curve, poor fit] |
| C=C1C[C@H]2[C@H]3CCC(=O)[C@@]3(C)CC[C@@H]2[C@@]2(C)C=CC(=O)C=C12 | inconclusive: 20900 nM [cytotoxic, partial curve, poor fit] |
| O=C(O)CCCc1ccc(N(CCCl)CCCl)cc1 | inconclusive: 1050 nM [rising, full curve, poor fit] |
| COc1ccc(C(=O)c2c(C)n(CCN3CCOCC3)c3cc(I)ccc23)cc1 | active: 8330 nM |
| Cc1c(C(=O)c2cccc3ccccc23)c2cccc3c2n1[C@H](CN1CCOCC1)CO3 | active: 3720 nM |
| C[C@@H]1[C@@H](C(=O)C[C@H]2O[C@@H]3O[C@]4(C)CC[C@@H]5[C@H](C)CC[C@@H]([C@H]2C)[C@@]35OO4)O[C@@H]2O[C@]3(C)CC[C@H]4[C@H](C)CC[C@@H]1[C@@]24OO3 | active: 59 nM |
| CSCC[C@@H](NC(=O)[C@@H](Cc1ccccc1)NC(=O)CNC(=O)CNC(=O)[C@@H](N)Cc1ccc(O)cc1)C(=O)O | inactive |
| CC(=O)O[C@@]12CO[C@H]1C[C@H](O)[C@@]1(C)C(=O)[C@H](O)C3=C(C)[C@@H](O)C[C@@](O)([C@@H](OC(=O)c4ccccc4)[C@@H]21)C3(C)C | inconclusive: 372 nM [cytotoxic, full curve, poor fit] |
| O=c1[nH]c2ccccc2n1C1CCN(Cc2ccc(-c3[nH]c4cc5ncnc5cc4nc3-c3ccccc3)cc2)CC1 | active: 5900 nM |
| O=C(N[C@H]1CN2CCC1CC2)c1ccc(Cl)cc1 | inconclusive: 16600 nM [cytotoxic, partial curve] |
| CC(C)(O)C=CC(=O)[C@](C)(O)[C@H]1[C@H](O)C[C@]2(C)[C@@H]3CC=C4[C@@H](C=C(O)C(=O)C4(C)C)[C@]3(C)C(=O)C[C@@]12C | active: 20.9 nM |

Quoted from the listing:
`C[C@@H]1[C@H](O)[C@@H](C)C=CC=CCCC=CC=CC=CC=C[C@H](O[C@H]2O[C@@H](C)[C@H](O)[C@@H](N)[C@@H]2O)CC2O[C@](O)(C[C@@H](O)[C@H](O)CC[C@@H](O)C[C@@H](O)C[C@@H](O)CC(=O)O[C@H]1C)C[C@H](O)[C@H]2C(=O)O` – Potency: inconclusive: 1.2 nM [cytotoxic, full curve, poor fit]
`O=C(N[C@H]1CN2CCC1CC2)c1ccc(Cl)cc1` – Potency: inconclusive: 16600 nM [cytotoxic, partial curve]

The results go on.

| SMILES | Potency |
| --- | --- |
| C[C@@]12OC(=O)[C@]1([C@@H](O)[C@@H]1C=CCCC1)NC(=O)[C@H]2CCCl | inconclusive: 26.4 nM [cytotoxic, full curve] |
| C[C@](O)(COc1ccc(C#N)cc1)C(=O)Nc1ccc(C#N)c(C(F)(F)F)c1 | inconclusive: 33200 nM [cytotoxic, single point] |
| C[C@@H]1C[C@@H]([C@H](O)CC2CC(=O)NC(=O)C2)C(=O)[C@@H](C)C1 | active: 743 nM |
| CC(=O)N(C)c1cccc(-c2ccnc3c(C(=O)c4cccs4)cnn23)c1 | inactive |
| CCOC(=O)c1cncn1[C@H](C)c1ccccc1 | inconclusive: 1.7 nM [cytotoxic, full curve, poor fit] |
| Cc1cc(SCc2sc(-c3ccc(C(F)(F)F)c(F)c3)nc2C)ccc1OCC(=O)O | inconclusive: 20900 nM [cytotoxic, partial curve, poor fit] |
| c1ccc(CCCN2CCN(CCOC(c3ccccc3)c3ccccc3)CC2)cc1 | inactive |
| C[C@]12CC[C@H]3[C@@H](CCC4=CC(=O)CC[C@@]43C)[C@H]1CC[C@H]2O | inconclusive: 37200 nM [cytotoxic, single point] |
| CNC(=O)N1N=C(c2ccc(N)cc2)c2cc3c(cc2CC1C)OCO3 (stereo not given) | active: 5260 nM |
| O=C(Oc1ccc([N+](=O)[O-])cc1)N1CCN(Cc2cccc(Oc3ccccc3)c2)CC1 | inconclusive: 16600 nM [cytotoxic, partial curve, poor fit] |
| CN(C)[C@@H]1C(=O)C(C(N)=O)=C(O)[C@@]2(O)C(=O)C3=C(O)c4c(O)cccc4[C@@](C)(O)[C@H]3C[C@@H]12 | inactive |
| COc1cccc2c1[C@]13CCN(CC4CC4)[C@H](C2)[C@]1(OC)CCC(=O)C3 | inconclusive: 2.1 nM [rising, full curve, poor fit] |
| C[C@]12CCC(=O)C(O)=C1CC[C@@H]1[C@H]3CCC(=O)[C@@]3(C)CC[C@@H]12 | inconclusive: 1.9 nM [cytotoxic, full curve, poor fit] |
| CC=C(C)C(=O)O[C@H]1C(C)=C2[C@@H]3OC(=O)[C@@](C)(O)[C@@]3(O)[C@@H](OC(=O)CCC)C[C@](C)(OC(C)=O)[C@@H]2[C@@H]1OC(=O)CCCCCCC | inconclusive: 6.6 nM [cytotoxic, full curve, poor fit] |
| C1=C2CCCN[C@H]2[C@@H]2C[C@H]1[C@@H]1CCCCN1C2 | inactive |
| O=C(O)C(=O)c1cn(Cc2ccccc2)c2ccc(-c3ccc(OC(F)(F)F)cc3)cc12 | inconclusive: 11.8 nM [rising, full curve, poor fit] |
| CC(C)N(CCNC(=O)CN1CCCC1=O)C(C)C | inactive |
| C[C@]12CC[C@H]3[C@@H](CCC4=CC(=O)CC[C@@]43C)[C@H]1CC[C@H]2OC(=O)CCC1CCCC1 | inactive |
| CN1[C@H]2CC(O)C[C@H]1[C@H]1O[C@H]12 (stereo not given in full) | inactive |
| CCCC(C)(COC(N)=O)COC(=O)NC(C)C (stereo not given) | inactive |
